For this experiment, the target named is PTEN-induced putative kinase 1 (human (endogenous in HK-2)) (UniProt Q9BXM7). Nature of the experiment: co-IP; antibody (or IgG) bound to protein A+G magnetic beads for 1 h at room temperature, lysate added overnight at 4 degrees Celsius, eluted in SDS loading buffer, immunoblot; HK-2 cell groups with LPS, ISO-1, OE-MIF or KD-MIF. (In general: In western blotting, separated proteins are transferred to a membrane and probed.)

Chains of the proteins cited; added tags and fusions are not shown. Residues count along the entry.
UniProt Q9BXM7, residues 78-581: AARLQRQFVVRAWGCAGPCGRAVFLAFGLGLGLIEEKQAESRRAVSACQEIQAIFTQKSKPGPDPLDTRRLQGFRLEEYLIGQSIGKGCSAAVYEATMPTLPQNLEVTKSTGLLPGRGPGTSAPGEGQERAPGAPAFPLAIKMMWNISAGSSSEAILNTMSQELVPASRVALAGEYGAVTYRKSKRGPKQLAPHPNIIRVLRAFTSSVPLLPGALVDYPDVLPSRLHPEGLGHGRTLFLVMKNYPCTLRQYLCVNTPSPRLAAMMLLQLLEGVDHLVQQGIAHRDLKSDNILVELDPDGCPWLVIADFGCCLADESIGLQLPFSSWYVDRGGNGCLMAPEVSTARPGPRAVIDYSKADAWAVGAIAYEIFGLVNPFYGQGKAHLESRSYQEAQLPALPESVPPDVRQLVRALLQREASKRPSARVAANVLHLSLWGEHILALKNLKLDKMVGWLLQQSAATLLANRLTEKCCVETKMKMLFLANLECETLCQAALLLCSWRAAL

These are yes or no findings as the source states them, for the method shown. In cells and extracts the contact can be indirect. Some entries that bind do so weakly or less than the wild type.

B1: Macrophage migration inhibitory factor (protein, UniProt P14174 1-115)
chain: MPMFIVNTNVPRASVPDGFLSELTQQLAQATGKPPQYIAVHVVPDQLMAFGGSSEPCALCSLHSIGKIGGAQNRSYSKLLCGLLAERLRISPDRVYINYYDMNAANVGWNNSTFA
Turning to B1, the binding entry was “binds”.

The record behind these values is publication PMC11220046.
